According to paper PMC7023381, “Sulfonamide Inhibition Profile of the β-Carbonic Anhydrase from Malassezia restricta, An Opportunistic Pathogen Triggering Scalp Conditions” (Metabolites, 2020):

Molecular target: T1, MreCA (Malassezia restricta, UniProt A0A3G2S4B9)
T1 construct: gene can; recombinant from synthetic gene in pET100D-Topo, E. coli BL21(DE3) codon plus; N-terminal His6-tag fusion, 27 kDa on SDS-PAGE; no tag cleavage told
T1 sequence (A0A3G2S4B9 1-238): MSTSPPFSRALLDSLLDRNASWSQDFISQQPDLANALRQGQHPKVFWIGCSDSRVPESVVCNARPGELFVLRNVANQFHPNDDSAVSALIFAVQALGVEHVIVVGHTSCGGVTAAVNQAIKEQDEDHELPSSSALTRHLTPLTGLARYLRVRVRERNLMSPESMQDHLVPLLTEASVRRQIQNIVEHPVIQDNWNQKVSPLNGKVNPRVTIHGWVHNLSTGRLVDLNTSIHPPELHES
Assay: stopped-flow CO2 hydrase assay
Type: biochemical

Ki: 0.81 µM
Compound: CCN[C@H]1C[C@H](C)S(=O)(=O)c2sc(S(N)(=O)=O)cc21 [DZA]
